For 4 substances, binding results are on record in paper doi:10.1101/2021.06.06.447270.

Amino acid sequences for entries named in this document (tags omitted). A change or cut given only in a name is not applied to a line headed by its entry.
UniProt P25911: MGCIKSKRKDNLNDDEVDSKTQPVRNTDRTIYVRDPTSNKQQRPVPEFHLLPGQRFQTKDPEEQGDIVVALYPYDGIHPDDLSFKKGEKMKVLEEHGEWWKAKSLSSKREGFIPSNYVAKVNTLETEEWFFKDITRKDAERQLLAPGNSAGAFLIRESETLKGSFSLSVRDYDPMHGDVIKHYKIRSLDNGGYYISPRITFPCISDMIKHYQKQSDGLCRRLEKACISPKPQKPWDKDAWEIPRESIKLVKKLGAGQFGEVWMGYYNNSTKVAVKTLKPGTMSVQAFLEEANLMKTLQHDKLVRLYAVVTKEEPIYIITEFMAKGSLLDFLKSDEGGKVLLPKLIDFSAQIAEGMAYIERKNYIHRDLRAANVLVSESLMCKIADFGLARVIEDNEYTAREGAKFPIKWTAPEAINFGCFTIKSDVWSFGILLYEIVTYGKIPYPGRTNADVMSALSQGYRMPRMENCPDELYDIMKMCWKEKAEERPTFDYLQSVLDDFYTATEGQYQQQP
UniProt Q08857: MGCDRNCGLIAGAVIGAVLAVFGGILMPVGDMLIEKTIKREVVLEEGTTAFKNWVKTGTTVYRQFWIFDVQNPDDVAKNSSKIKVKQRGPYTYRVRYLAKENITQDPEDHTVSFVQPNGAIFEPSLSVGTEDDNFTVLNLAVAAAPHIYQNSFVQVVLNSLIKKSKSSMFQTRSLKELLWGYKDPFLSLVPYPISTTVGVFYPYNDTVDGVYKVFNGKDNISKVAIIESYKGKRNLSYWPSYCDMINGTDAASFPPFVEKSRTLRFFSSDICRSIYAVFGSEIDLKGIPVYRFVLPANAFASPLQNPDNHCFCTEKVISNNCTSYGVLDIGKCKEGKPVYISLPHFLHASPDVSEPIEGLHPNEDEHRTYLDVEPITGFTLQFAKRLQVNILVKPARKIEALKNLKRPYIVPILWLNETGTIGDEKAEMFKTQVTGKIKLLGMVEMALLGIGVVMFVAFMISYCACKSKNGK
UniProt P39688: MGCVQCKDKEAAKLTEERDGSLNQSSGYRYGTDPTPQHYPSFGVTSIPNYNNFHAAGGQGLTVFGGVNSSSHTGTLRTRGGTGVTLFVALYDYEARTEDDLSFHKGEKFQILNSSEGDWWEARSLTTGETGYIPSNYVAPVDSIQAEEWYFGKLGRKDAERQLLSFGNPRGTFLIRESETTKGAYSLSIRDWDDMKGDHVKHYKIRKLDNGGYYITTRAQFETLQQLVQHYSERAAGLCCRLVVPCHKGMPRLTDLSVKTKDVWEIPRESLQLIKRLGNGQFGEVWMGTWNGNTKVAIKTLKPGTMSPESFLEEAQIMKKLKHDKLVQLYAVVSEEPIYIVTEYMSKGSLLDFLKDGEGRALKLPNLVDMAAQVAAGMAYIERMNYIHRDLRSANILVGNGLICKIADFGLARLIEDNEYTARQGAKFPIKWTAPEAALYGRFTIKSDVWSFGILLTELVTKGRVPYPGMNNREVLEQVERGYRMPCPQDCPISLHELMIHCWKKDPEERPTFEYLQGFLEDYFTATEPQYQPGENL
UniProt P41241: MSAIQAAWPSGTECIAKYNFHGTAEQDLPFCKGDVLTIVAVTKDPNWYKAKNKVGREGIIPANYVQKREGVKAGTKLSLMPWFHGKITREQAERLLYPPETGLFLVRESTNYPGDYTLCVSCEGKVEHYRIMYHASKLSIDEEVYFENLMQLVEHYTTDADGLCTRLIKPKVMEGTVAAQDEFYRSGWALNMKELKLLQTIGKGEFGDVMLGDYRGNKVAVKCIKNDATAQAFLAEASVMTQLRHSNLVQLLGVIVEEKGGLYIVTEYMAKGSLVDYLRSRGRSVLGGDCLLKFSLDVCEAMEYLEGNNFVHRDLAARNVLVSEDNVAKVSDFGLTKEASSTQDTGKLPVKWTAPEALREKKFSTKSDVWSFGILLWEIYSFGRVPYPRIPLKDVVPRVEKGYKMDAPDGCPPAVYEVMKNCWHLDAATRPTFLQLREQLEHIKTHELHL

Holding throughout (test): co-IP
Assay [1] addresses Src family kinase Lyn (mouse (endogenous in J774A.1)) (UniProt P25911).
Assay [2] shares this target. The source holds these as a separate data set.
Assay [3] addresses scavenger receptor CD36 (mouse (endogenous in J774A.1)) (UniProt Q08857).
Assay [4] shares this target. This is another data set of the same source.

Where two headings read alike, the source gives them in different places. No constants are given. Whether binding was seen depends on the method and setting. In cells and extracts the contact can be indirect. Some entries that bind do so weakly or less than the wild type.

With “scavenger receptor CD36 (from UniProt Q08857 1-472)”, the binding entry in assay [1] is “binds weakly”; in assay [2] it was “binds”.
Regarding “Src family kinase Lyn (from UniProt P25911 1-512) (enzyme)”, the binding entry in assay [3] was “binds”; in assay [4], “binds weakly”.
Consider “Fyn kinase (from UniProt P39688 1-537) (enzyme)”, for which, in assay [3], the binding entry is recorded as “binds weakly”.
Turning to “C-terminal src kinase (from UniProt P41241 1-450) (enzyme)”, the binding result in assay [3] is given as “binds weakly”.
